Laboratory results published in article PMC10163288.
The other results are listed elsewhere or left out.

B1: il10ra_site1_normal_mot_HHH_b1_00456_000000263_0001_1_17_H_._HHH_b2_02610_0001_0000100003_0000002_0_af2pred_0001 (protein)
chain: SSSSSSEVQEEVEELLEEAKRIKDPAERTYALLRAFALANRNNDPELRKLVEKVAIELSSSSSSS
B2: il10ra_site1_sap_19_mot_HHH_b2_00943_af2_000000149_0001_1_17_H_._HHH_b1_08407_0001_0000100002_0000001_0_0001_af2pred_dldesign_0_af2pred (protein)
chain: SSSSNPEARATTRYLLEAAREIEDEELREKALDYARACAEKLNDPELLAELERVREELEKSSSSS
B3: il10ra_site1_normal_mot_HHH_b2_02053_af2_000000006_0001_3_19_H_._HHH_b2_04257_af2_0001_0000300004_0000001_0_af2pred_0001 (protein)
chain: SSSSSELQEILKLIEEALEARQQGNPEEAEELLEEAEKLAREANDPLAERLIKIAKKMVRSSSSS
B4: il10ra_site1_sap_17_mot_HHH_b1_05357_000000034_0001_23_39_H_._HHH_b1_06750_af2_0001_0000700020_0000002_0_0001 (protein)
chain: SSSSSLVEETYRLSREAMELLRNGNPEEAERVLREIEELLEENNDRVMLHVIEYILRQIESSSSS
B5: il10ra_site1_sap_19_mot_HHH_b2_06600_af2_000000211_0001_1_16_H_._HHH_b1_07688_af2_0001_0000600013_0000002_0_0001 (protein)
chain: SSSSSSDEVLELSRRAFHALLRGNEEEARELLEEAIELAREAGDPRLLRNLESLLEITSSSSSSS
B6: il10ra_site1_normal_mot_cff26900b2948c323735a169404cbef0_0001_1_000000271_0001_18_33_H_._HHH_b1_05248_0001_0000600021_0000001_0_af2pred_0001 (protein)
chain: SSSSDEYEEILREYEEEAKELGNSNARRRLRWATEIAKRLGASEEELRRILRAALELIEQGSSSS
B7: il10ra_site1_normal_mot_ems_3hC_416_0001_000000048_0001_1_19_H_._HHH_b2_07604_af2_0001_0000100001_0000001_0 (protein)
chain: SSSDAMQRVLELIIEAFRALLRGDREEAEELVREAEEIARERNDEAAERAVEIILEAVKVSSSSS
B8: il10ra_site1_sap_22_mot_HHH_b2_06602_000000226_0001_1_16_H_._HHH_b2_00323_0001_0000100002_0000002_0_0001_af2pred_0001 (protein)
chain: SSSSSEELERYREELEKLIEEGDREEFAQLFVEAARRAQELGDKELLEEILRLAVEFVREDSSSS
B9: il10ra_site1_sap_21_mot_HHH_b2_08265_af2_000000206_0001_22_38_H_._HHH_b1_06049_0001_0000200020_0000002_0_0001 (protein)
chain: SSSSDQEELVRLLREAFRLALRGNPEEAREVLREARELAEELNDERALHVLEDLERAVHGSSSSS
B10: il10ra_site1_normal_mot_HHH_b2_02736_000000092_0001_22_38_H_._HHH_b1_03692_0001_0000200033_0000001_0 (protein)
chain: SSSSQEAYELSRRAIEEVSRLFEEGNREEARQLAEELEELLRELGNVAALFAAEILLRALESSSS
B11: il10ra_site1_sap_20_mot_HHH_b1_03801_000000023_0001_41_55_H_._HHH_b1_02094_0001_0000200011_0000002_0_0001 (protein)
chain: SSSSDEAYEVVREAIEEAIEALRRGNPEEAREIVEEAIELIRELGNMSALFALEHLLRVINSSSS
B12: il10ra_site1_sap_17_mot_HHH_b2_01447_af2_000000258_0001_1_20_H_._HHH_b1_08248_af2_0001_0000200008_0000001_0_0001 (protein)
chain: SSSSDETYEISRKAIEEASELWERGNPEEAERVVEEALEEVRERNDPAAVFSLENLLRAIHSSSS
B13: il10ra_site1_sap_17_mot_HHH_b2_02337_000000026_0001_38_52_H_._HHH_b2_02689_0001_0000400041_0000001_0_0001 (protein)
chain: SSSSDREQRVFELLRRIVELHLEGDREEAEELLEEAEELIRELGSDIFRWQLEWLERLVNSSSSS
B14: il10ra_site1_normal_mot_HHH_b2_06786_000000018_0001_41_57_H_._HHH_b1_04343_0001_0000300015_0000001_0 (protein)
chain: SSSTDEVIERASEVAQEAVRLAIRRSDEETLQELWRLFKEIIREGDPELLKELERLLEELRSSSS
B15: il10ra_site1_sap_22_mot_HHH_b2_03220_af2_000000223_0001_23_40_H_._HHH_b1_00352_0001_0000400021_0000001_0_0001 (protein)
chain: SSSSSEEEEEVKELLEKAKELRERGDPRKASKVLAEAVHLALKANNEELLQEVWRLVKELSSSSS
B16: il10ra_site1_sap_29_mot_HHH_b1_06828_af2_000000004_0001_41_57_H_._HHH_b1_06126_af2_0001_0000500008_0000001_1_0001 (protein)
chain: SSSSDEEEEVKELLEEVRRLIEEGDDEEATELLLRATHLALRLGDAELLQEVWEVVQELYNSSSS
B17: il10ra_site1_sap_29_mot_HHH_b2_06767_000000020_0001_41_56_H_._HHH_b2_07372_0001_0000400044_0000002_0_0001 (protein)
chain: SSSSTDERFEKVAEAIKEAIELQRNGDPEEARRVLEEALELAEEANDQILRRILEKMLERLSSSS
B18: il10ra_site1_sap_23_mot_HHH_b2_00984_000000042_0001_1_20_H_._HHH_b2_03704_af2_0001_0000100003_0000003_0_0001 (protein)
chain: SSSSSSEVEERVEELLEEARHVDADEMYRLIKEAIELASEYNNDELQKLVMEVLRELMHSSSSSS
B19: il10ra_site1_sap_21_mot_HHH_b2_04680_000000215_0001_1_16_H_._HHH_b2_07708_af2_0001_0000400025_0000003_0_0001 (protein)
chain: SSSSNREEISHRFLRALIEWAEKKGDEEALEMLKRSLRIFVRALNDPELEKLLEELEELLSSSSS
B20: il10ra_site1_normal_mot_HHH_b2_07145_000000158_0001_24_40_H_._HHH_b1_00992_0001_0000100009_0000002_0 (protein)
chain: SSSSEEEFKEFKKVIEELTRLTREGDEEEFERLFERLHRRLEEEGDEVRLLSLEFLYRRDSSSSS
B21: il10ra_site1_normal_mot_HHH_b2_01447_af2_000000258_0001_1_20_H_._HHH_b1_07315_0001_0000100015_0000001_0 (protein)
chain: SSSSDEENKEVMRLVRKASELDQNGDPEEARRVLEEAEQLAEELGNHALRFSLEHLLRLLSSSSS
B22: il10ra_site1_sap_12_mot_HHH_b2_00092_000000181_0001_22_39_H_._HHH_b2_07100_0001_0000300011_0000002_0_0001_af2pred_dldesign_0_af2pred (protein)
chain: SSSSSLNQKITDLIKEALDALAEGKPEEARKLLDEAEELAKKAKSPIMEHAIAAARRAVESSSSS
B23: il10ra_site1_normal_mot_HHH_b2_02053_af2_000000006_0001_3_19_H_._HHH_b1_01295_af2_0001_0000300014_0000002_0 (protein)
chain: SSSSSDLSEEIYELIREALELRARGNPEEAEEVLERARELAEELGSEWLLRQIEFILRLLSSSSS
B24: il10ra_site1_normal_mot_HHH_b2_07521_000000141_0001_20_37_H_._HHH_b1_07534_0001_0000100004_0000001_1_af2pred_0001 (protein)
chain: SSSSSDEEFIELSLKFLKFLLEQGDERAAKIIFHAIEELIKRINDEELQRRLEELEEEIHSSSSS
B25: il10ra_site1_normal_mot_HHH_b2_00277_af2_000000172_0001_1_17_H_._HHH_b2_03853_0001_0000100002_0000001_0_af2pred_dldesign_0_af2pred (protein)
chain: SSSSDPAAVAAEVDALLAEARKEEDREKRSHLLLQAYSVANAANDAALVARVEAEAKRLASSSSS
B26: il10ra_site1_sap_24_mot_HHH_b1_05254_000000006_0001_1_19_H_._HHH_b1_01900_0001_0000400044_0000001_1_0001_af2pred_0001 (protein)
chain: SSSSSEEEERVRLALRFAEWLLEQGDKEAAEFALKAAEEIAKRIGDEELLEKVEELLEELSSSSS
B27: il10ra_site1_sap_15_mot_HHH_b2_02497_000000141_0001_1_20_H_._HHH_b1_08018_0001_0000200009_0000001_0_0001 (protein)
chain: SSSSSSEKEEAEELLEEAERLAEEGNPEEAARLLYEAARLAAKAGDRELAERIVHLFIRLSSSSS
B28: il10ra_site1_sap_10_mot_HHH_b1_08742_000000038_0001_1_20_H_._HHH_b1_02292_0001_0000200017_0000001_0_0001 (protein)
chain: SSSSNASEEVFRILKRVAELDNEGDHEEAEELLEEAERLAREANSDVFLMQVEYLQRLLNSSSSS
B29: il10ra_site1_sap_12_mot_HHH_b1_03270_000000208_0001_21_37_H_._HHH_b2_00361_af2_0001_0000600006_0000001_1_0001 (protein)
chain: SSSSSSRREANEEAWELIREALHIDDPEEAEELLREALRLAEEANSQAFEFAIKLALRQLSSSSS
B30: il10ra_site1_normal_mot_HHH_b1_06789_af2_000000041_0001_1_20_H_._HHH_b2_01909_0001_0000100005_0000001_0 (protein)
chain: SSSSSSVEFLVRQALRAVKNLLEAGDPERAEEAAKIAENLAEQANNPEAQELVERVEKELSSSSS
B31: il10ra_site1_normal_mot_HHH_b2_04681_000000155_0001_43_57_H_._HHH_b1_06444_af2_0001_0000100006_0000002_0 (protein)
chain: SSSSDEEFREYRELVEKISQALNKGDRERARELLEELEEIAEELNNHILKAQVEFLRRLVNSSSS
B32: il10ra_site1_sap_22_mot_39ab2cb694c8b9c1dc7e65c0d672c93e_0001_000000036_0001_53_65_H_._HHH_b1_06179_0001_0000300021_0000001_0_0001_af2pred_0001 (protein)
chain: SSSSSDEDEEVIRLIRRILELLHKGDEEEAEELLERAKRIAEEAGNPIALVILEKIEEELKSSSS
B33: il10ra_site1_normal_mot_cff26900b2948c323735a169404cbef0_0001_1_000000271_0001_18_33_H_._HHH_b1_05248_0001_0000600022_0000002_0 (protein)
chain: SSSSDEYEEILREYEEEAEELGNEDARKMLRLATESAKRAGATEEDLRRQLRYALEQVEKGSSSS
B34: il10ra_site1_normal_mot_HHH_b1_05400_af2_000000077_0001_23_40_H_._HHH_b2_07961_0001_0000200018_0000001_0_af2pred_0001 (protein)
chain: SSSSSEEEERLKELLERLKELLEEGDEEEFIELAFEALRLALRVRDEEVLEELDRLLASLYSSSS
B35: il10ra_site1_sap_16_mot_HHH_b1_05329_000000008_0001_43_56_H_._HHH_b1_00148_af2_0001_0000500018_0000002_0_0001_af2pred_0001 (protein)
chain: SSSSDEREKDLERLIELLKRLVELGDEENARLAARILKELAKFANDPEAEREIEELLQEVTSSSS
B36: il10ra_site1_normal_mot_HHH_b2_06979_000000158_0001_42_57_H_._HHH_b2_06088_af2_0001_0000400027_0000001_0 (protein)
chain: SSSSDLNEELYEILREAAELLANGNPEEARELLEKAEQIAEENNNELLLINARYLFRDVEGSSSS
B37: il10ra_site1_sap_26_mot_HHH_b2_05323_000000159_0001_1_18_H_._HHH_b2_01700_0001_0000300026_0000001_0_0001 (protein)
chain: SSSSDRELREVYELIRKAFELARRGNPEEAEELLEEARRLAEEANSPVFRFAIRALLENLSSSSS

Target: il10ra, Q13651
Experiment: yeast display titration

| Binder | apparent Kd |
| --- | --- |
| B1 | inactive: no binding seen |
| B2 | inactive: no binding seen |
| B3 | inactive: no binding seen |
| B4 | inactive: no binding seen |
| B5 | inactive: no binding seen |
| B6 | inactive: no binding seen |
| B7 | inactive: no binding seen |
| B8 | inactive: no binding seen |
| B9 | inactive: no binding seen |
| B10 | inactive: no binding seen |
| B11 | inactive: no binding seen |
| B12 | inactive: no binding seen |
| B13 | inactive: no binding seen |
| B14 | inactive: no binding seen |
| B15 | inactive: no binding seen |
| B16 | inactive: no binding seen |
| B17 | inactive: no binding seen |
| B18 | inactive: no binding seen |
| B19 | inactive: no binding seen |

An excerpt of these results, as tab-separated lines:
Binder	apparent Kd
B2	inactive: no binding seen
B19	inactive: no binding seen

Following part.

| Binder | apparent Kd |
| --- | --- |
| B20 | inactive: no binding seen |
| B21 | inactive: no binding seen |
| B22 | inactive: no binding seen |
| B23 | inactive: no binding seen |
| B24 | inactive: no binding seen |
| B25 | inactive: no binding seen |
| B26 | inactive: no binding seen |
| B27 | inactive: no binding seen |
| B28 | inactive: no binding seen |
| B29 | inactive: no binding seen |
| B30 | inactive: no binding seen |
| B31 | inactive: no binding seen |
| B32 | inactive: no binding seen |
| B33 | inactive: no binding seen |
| B34 | inactive: no binding seen |
| B35 | inactive: no binding seen |
| B36 | inactive: > 583 nM |
| B37 | inactive: no binding seen |
